Values from PubChem BioAssay AID652272 (Drosophila RNAi Screening Center, 2013).
In all, the deposit lists about 21,000 reagents; below is a random part of those with a known target gene and a result. Over the whole deposit, 503 (2.4%) were called active. 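Raw plate light values, not normalised; calls rest on replicate z-scores that were not deposited; hits include reporter decreases as well as increases.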 Names joined by + are all predicted targets of the reagent. Not given: the amount of reagent, the time to read-out.

Screen: 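Finding fly genes that regulate Hedgehog signal transduction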 (primary screen)
System: Drosophila clone 8 (Cl8) cells
Reagents: long dsRNA against Drosophila genes
Measurement: 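Firefly light from a Hedgehog-responsive ptc promoter reporter and Renilla reference light, both read on a plate reader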
Direction: firefly Hh reporter signal: higher = more ptc reporter light; Renilla reference signal: higher = more Renilla control light
Call rule: 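Called a hit if the two-replicate mean z-score lies below -2 or above +3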
Meaning of the calls: active = hit: reporter lowered or raised; inactive = not a hit

predicted target	PubChem SID	firefly Hh reporter signal, replicate 1	firefly Hh reporter signal, replicate 2	firefly Hh reporter signal, replicate 3	Renilla reference signal, replicate 1	Renilla reference signal, replicate 2	Call
RpL29 (GeneID 37430)	SID104184442	83883	78392		2340	6629	inactive
Spn75F (GeneID 317912)	SID104189381	2.20e5			4501		inactive
aux (GeneID 40527)	SID104191953	1.49e5	1.37e5		6210	5273	inactive
CG11248 (GeneID 40411)	SID104191436	1.02e5	97414		4688	4608	inactive
CG9609 (GeneID 32663)	SID104199991	1.25e5	1.15e5		2604	2715	inactive
lectin-30A (GeneID 53541)	SID104182352	65821	31060		2181	3035	inactive
CG9497 (GeneID 33884)	SID104183026	83812	88484		3780	3581	inactive
RpL21 (GeneID 35453)	SID104183496	28896	22137		1125	3943	active
CG3301 (GeneID 42528)	SID104195263	98308	83401		3756	3130	inactive
Plekhm1 (GeneID 37520)	SID104184319	78656	59604		2004	5241	inactive
FIG4 (GeneID 33658)	SID104180307	66392	66125		2952	2384	inactive
ncm (GeneID 35099)	SID104181971	11141	35959		825	2195	active
Aldh-III (GeneID 45398)	SID104185839	1.81e5	90603		6651	2288	inactive
CG7557 (GeneID 39278)	SID104190670	1.77e5	1.17e5		6488	4572	inactive
Cpr49Ah (GeneID 36354)	SID104186996	76805	59035		1611	3536	inactive
CG13177 (GeneID 5740215)	SID104186095	1.04e5	59837		3339	6930	active
ND-B12 (GeneID 37466)	SID104183852	73312	53600		1741	4628	inactive
Gcna (GeneID 31139)	SID104198345	1.83e5	1.08e5		4444	3316	inactive
RtcB (GeneID 35220)	SID104183072	1.39e5	64626		3536	6504	inactive
CG33257 (GeneID 2768960)	SID104189709	1.04e5			4044	3032	inactive
CG31495 (GeneID 261626)	SID104196554	1.06e5	65942		3513	1946	inactive
CR31822 (GeneID 10178843)	SID104181302	1.08e5	1.99e5		3179	9537	inactive
Cyp4ae1 (GeneID 31193)	SID104198247	84277	77315		2066	2429	inactive
CG13670 (GeneID 38938)	SID104189821	56224	50984		4378	3594	inactive
CG13516 (GeneID 3885599)	SID104183951	1.51e5	77408		3716	6265	inactive
woc (GeneID 47249)	SID104195720	93660	63116		2144	1657	inactive
Cdk12 (GeneID 40385)	SID104191628	79147	99056		2912	3748	inactive
Sytalpha (GeneID 35068)	SID104182661	1.10e5	37906		2700	4183	inactive
CG31300 (GeneID 326132)	SID104194449	5.22e5	1.29e5		22808	3353	inactive
pan (GeneID 43769)	SID104196968	61064	57457		1933	1894	inactive
Duox (GeneID 33477)	SID104180363	1.43e5	1.11e5		3141	2987	inactive
sncRNA:430e + His2A:CG33859 + His2A:CG33817 + 37 more	SID104201056	44578	55801		2804	2600	inactive
CG31999 (GeneID 43777)	SID104196923	78571	2.10e5		2086	7619	inactive
CG31999 (GeneID 43777)	SID104196925	73558	1.63e5		2168	6865	inactive
MtnF (GeneID 12798528)	SID104193475	46688	1.58e5		10472	3208	inactive
yellow-g2 (GeneID 38295)	SID104188130	60170	40620		2029	3392	inactive
lark (GeneID 38811)	SID104191154	99681	52532		4203	2396	inactive
CG13919 (GeneID 38200)	SID104188180	65908	37876		2565	3104	inactive
CG7407 (GeneID 40430)	SID104191616	97945	87480		4084	3721	inactive
mei-9 (GeneID 31373)	SID104198584	75990	1.68e5		2512	4946	inactive
Kpc2 (GeneID 37261)	SID104187427	1.21e5	59723		3341	4378	inactive
SCaMC (GeneID 39415)	SID104190085	96560	74801		3847	2747	inactive
SCaMC (GeneID 39415)	SID104190207	77453	40665	35443	3299	1393	inactive
DAT (GeneID 36849)	SID104187186	1.04e5	56857		3184	4566	inactive
CG13403 (GeneID 32366)	SID104199327	78192	3.05e5		1891	12676	inactive
vig2 (GeneID 43016)	SID104194194	95417	70592		3077	2184	inactive
CG6867 (GeneID 32782)	SID104199805	86976	3.04e5		2449	13420	inactive
CG17202 (GeneID 41526)	SID104194986	83252	96345		2320	14388	inactive
Ugt303B1 (GeneID 42775)	SID104194933	7.10e5	95457		32624	2848	inactive
Sos (GeneID 34790)	SID104183231	1.07e5	46776		2784	3857	inactive
atk (GeneID 40266)	SID104191210	4.62e5	1.89e5	90164	3577	3552	inactive
atk (GeneID 40266)	SID104191561	1.20e5	84941		4410	2612	inactive
Mrp5 (GeneID 42362)	SID104195389	5.85e5	93016		29238	2771	inactive
Mrp5 (GeneID 42362)	SID104195390	6.30e5	1.52e5		32460	4389	inactive
Ror (GeneID 34367)	SID104183206	1.23e5	81707		3082	7024	inactive
ACOX1 (GeneID 37028)	SID104185733	1.11e5	82696		4925	3590	inactive
ncd (GeneID 43517)	SID104196804	66449	51760		1707	1671	inactive
Swim (GeneID 37537)	SID104184126	59869	61864		2583	2125	inactive
snRNP-U1-70K (GeneID 33982)	SID104183404	1.62e5	6.46e5	92669	4119	41804	inactive
zpg (GeneID 251414)	SID104189494	68776	84572		8368	5915	inactive
Ssadh (GeneID 43092)	SID104195413	1.01e5	85782		2408	2562	inactive
mts (GeneID 45959)	SID104183366	41014	18534		2779	1800	active
CG32445 (GeneID 261603)	SID104191470	86208	96053		3133	2773	inactive
GstE2 (GeneID 37107)	SID104186464	94488	81840		2713	5851	inactive
CG30065 (GeneID 246431)	SID104185212	1.42e5	2.04e5		3800	8557	inactive
GABA-B-R3 (GeneID 33248)	SID104180353	87648	78073		2379	1978	inactive
p120ctn (GeneID 3355143)	SID104187545	62915	38210		2182	2658	inactive
su(sable) (GeneID 31012)	SID104198631	60920	1.35e5		3739	7981	inactive
Sfxn2 (GeneID 40080)	SID104190510	1.01e5	1.03e5		3216	2960	inactive
firl (GeneID 34627)	SID104182220	1.07e5	41724		2681	4621	inactive
Der-2 (GeneID 42005)	SID104194813	70208	82483		2794	919	inactive
gammaSnap2 (GeneID 41239)	SID104195784	77659	89601		2872	2409	inactive
Tudor-SN (GeneID 38045)	SID104188373	70716	76154		3299	2899	inactive

Ordered by “firefly Hh reporter signal, replicate 1” (descending): 3 of the entries above
predicted target	PubChem SID	firefly Hh reporter signal, replicate 1	firefly Hh reporter signal, replicate 2	firefly Hh reporter signal, replicate 3	Renilla reference signal, replicate 1	Renilla reference signal, replicate 2	Call
GABA-B-R3 (GeneID 33248)	SID104180353	87648	78073		2379	1978	inactive
p120ctn (GeneID 3355143)	SID104187545	62915	38210		2182	2658	inactive
su(sable) (GeneID 31012)	SID104198631	60920	1.35e5		3739	7981	inactive
